# Results from the supplement of paper PMC11732987, “Enantioselective OTUD7B fragment discovery through chemoproteomics screening and high-throughput optimisation” (Communications Chemistry, 2025).
# Amino acid sequences for entries named in this document (tags omitted). A change or cut given only in a name is not applied to a line headed by its entry. Residues count along the entry.
# UniProt O43462: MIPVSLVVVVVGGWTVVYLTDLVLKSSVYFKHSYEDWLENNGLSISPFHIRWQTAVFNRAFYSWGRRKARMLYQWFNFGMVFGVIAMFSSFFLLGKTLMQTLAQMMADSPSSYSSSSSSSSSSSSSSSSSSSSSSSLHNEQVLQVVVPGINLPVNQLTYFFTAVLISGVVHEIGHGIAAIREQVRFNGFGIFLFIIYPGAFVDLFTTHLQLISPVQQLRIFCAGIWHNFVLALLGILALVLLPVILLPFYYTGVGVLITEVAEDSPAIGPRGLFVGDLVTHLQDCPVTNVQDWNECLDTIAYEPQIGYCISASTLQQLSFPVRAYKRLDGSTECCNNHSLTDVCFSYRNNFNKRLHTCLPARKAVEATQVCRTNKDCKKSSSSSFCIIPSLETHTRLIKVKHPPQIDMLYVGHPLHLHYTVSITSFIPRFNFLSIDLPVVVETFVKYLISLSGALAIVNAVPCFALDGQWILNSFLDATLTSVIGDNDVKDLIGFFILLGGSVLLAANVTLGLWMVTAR
# UniProt Q8IWC1, 301-324: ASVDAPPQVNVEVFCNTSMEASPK
# UniProt Q32MZ4: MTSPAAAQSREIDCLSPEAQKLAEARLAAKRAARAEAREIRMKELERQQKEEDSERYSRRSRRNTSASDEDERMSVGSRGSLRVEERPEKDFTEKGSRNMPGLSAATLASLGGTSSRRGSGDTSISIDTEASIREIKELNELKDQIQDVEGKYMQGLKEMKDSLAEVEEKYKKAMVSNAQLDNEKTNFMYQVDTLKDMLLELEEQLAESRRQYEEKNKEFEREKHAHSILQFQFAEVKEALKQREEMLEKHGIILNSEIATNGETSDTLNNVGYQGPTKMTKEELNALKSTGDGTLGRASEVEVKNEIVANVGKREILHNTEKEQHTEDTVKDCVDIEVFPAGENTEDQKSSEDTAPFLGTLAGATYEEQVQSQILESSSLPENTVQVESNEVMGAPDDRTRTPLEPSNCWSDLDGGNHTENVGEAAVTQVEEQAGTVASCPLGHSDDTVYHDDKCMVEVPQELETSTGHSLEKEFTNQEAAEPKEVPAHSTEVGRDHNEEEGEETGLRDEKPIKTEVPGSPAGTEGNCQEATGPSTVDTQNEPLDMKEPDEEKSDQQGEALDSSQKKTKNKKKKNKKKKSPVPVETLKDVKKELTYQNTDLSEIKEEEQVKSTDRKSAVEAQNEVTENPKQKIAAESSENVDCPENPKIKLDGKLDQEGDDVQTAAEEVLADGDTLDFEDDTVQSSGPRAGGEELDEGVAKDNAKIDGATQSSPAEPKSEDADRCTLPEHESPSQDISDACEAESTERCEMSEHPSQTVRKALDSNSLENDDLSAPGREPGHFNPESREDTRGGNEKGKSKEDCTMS
# UniProt Q9UK45: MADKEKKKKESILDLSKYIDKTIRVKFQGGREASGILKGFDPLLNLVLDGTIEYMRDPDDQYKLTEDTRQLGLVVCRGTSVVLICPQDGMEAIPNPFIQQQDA
# UniProt P48449: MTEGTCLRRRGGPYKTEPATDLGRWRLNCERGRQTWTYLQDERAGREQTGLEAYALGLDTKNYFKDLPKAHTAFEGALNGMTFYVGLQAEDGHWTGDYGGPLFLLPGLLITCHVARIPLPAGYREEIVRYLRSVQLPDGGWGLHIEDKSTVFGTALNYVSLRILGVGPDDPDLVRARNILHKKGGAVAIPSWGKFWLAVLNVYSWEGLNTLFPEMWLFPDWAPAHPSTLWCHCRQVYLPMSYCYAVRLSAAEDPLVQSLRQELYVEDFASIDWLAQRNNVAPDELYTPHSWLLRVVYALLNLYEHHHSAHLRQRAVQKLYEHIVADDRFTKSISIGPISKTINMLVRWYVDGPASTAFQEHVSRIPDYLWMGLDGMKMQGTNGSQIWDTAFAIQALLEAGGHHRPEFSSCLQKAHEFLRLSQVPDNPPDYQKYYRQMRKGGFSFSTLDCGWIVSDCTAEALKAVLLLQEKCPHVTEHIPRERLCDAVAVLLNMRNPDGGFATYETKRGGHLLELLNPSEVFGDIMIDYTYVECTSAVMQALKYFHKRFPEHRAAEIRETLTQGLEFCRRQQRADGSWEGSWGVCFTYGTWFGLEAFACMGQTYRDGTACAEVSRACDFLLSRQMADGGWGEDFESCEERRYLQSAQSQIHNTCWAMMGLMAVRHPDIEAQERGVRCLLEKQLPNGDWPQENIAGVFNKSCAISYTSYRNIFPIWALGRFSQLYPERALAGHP
# UniProt P49137, 213-239: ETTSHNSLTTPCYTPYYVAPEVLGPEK
# UniProt P46821: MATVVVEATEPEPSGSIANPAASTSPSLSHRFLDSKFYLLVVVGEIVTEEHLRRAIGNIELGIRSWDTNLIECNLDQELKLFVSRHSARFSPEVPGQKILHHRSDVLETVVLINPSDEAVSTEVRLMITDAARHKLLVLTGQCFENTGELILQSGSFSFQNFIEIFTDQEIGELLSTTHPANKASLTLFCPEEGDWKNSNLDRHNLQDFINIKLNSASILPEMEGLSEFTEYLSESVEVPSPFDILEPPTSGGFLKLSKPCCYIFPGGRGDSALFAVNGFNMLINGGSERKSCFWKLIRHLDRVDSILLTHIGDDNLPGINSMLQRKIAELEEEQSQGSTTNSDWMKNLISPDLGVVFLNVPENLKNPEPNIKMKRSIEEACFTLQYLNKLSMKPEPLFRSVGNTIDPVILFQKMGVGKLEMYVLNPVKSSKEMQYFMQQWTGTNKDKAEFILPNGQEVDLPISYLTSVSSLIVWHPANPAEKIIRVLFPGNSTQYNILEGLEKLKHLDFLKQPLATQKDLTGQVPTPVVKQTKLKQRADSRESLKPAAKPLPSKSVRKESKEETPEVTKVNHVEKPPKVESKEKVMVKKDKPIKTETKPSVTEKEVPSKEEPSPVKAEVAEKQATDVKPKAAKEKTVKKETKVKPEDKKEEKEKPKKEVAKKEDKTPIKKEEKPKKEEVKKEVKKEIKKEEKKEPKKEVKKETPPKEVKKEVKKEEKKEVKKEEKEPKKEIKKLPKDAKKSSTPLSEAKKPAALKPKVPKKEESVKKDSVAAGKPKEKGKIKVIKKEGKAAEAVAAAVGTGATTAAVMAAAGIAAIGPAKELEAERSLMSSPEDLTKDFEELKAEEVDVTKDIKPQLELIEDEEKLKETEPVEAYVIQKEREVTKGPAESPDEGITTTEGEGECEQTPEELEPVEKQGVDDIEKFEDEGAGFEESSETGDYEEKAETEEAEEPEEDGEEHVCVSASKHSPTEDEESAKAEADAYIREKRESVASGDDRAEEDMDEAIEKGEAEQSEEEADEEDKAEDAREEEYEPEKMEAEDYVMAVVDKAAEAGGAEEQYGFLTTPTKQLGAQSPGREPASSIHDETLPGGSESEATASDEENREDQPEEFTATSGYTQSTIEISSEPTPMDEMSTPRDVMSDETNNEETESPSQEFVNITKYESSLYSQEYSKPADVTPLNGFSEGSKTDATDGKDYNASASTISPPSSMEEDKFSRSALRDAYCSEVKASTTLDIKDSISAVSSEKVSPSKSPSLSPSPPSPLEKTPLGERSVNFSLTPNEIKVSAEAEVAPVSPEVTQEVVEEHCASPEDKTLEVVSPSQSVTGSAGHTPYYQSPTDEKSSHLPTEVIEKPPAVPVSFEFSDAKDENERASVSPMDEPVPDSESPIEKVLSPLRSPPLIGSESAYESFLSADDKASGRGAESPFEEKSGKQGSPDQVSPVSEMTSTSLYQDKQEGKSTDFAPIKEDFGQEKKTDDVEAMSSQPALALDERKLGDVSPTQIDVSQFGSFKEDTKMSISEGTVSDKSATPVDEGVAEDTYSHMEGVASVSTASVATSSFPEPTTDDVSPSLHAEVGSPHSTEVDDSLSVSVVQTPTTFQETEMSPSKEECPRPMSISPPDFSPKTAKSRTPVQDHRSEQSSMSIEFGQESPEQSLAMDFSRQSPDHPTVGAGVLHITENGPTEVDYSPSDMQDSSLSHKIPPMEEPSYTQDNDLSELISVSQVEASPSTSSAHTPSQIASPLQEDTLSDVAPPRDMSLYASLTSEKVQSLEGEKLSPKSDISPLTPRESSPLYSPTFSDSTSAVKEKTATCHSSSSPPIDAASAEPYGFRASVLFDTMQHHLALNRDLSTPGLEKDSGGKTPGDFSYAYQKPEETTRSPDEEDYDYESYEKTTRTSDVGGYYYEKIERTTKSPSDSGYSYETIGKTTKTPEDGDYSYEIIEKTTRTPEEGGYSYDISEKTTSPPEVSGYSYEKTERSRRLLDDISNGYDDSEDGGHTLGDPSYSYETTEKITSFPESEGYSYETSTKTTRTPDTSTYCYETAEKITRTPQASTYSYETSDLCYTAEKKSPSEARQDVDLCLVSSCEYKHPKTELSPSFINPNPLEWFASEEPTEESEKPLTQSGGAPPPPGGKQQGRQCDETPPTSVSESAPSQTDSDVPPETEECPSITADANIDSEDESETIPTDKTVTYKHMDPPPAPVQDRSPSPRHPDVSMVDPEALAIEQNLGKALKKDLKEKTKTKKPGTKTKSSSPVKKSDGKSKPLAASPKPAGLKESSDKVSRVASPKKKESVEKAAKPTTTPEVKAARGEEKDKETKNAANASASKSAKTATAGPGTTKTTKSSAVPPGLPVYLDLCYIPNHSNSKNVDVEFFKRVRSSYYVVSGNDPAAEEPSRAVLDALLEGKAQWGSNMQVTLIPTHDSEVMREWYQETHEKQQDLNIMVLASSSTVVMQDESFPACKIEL
# UniProt Q9Y546: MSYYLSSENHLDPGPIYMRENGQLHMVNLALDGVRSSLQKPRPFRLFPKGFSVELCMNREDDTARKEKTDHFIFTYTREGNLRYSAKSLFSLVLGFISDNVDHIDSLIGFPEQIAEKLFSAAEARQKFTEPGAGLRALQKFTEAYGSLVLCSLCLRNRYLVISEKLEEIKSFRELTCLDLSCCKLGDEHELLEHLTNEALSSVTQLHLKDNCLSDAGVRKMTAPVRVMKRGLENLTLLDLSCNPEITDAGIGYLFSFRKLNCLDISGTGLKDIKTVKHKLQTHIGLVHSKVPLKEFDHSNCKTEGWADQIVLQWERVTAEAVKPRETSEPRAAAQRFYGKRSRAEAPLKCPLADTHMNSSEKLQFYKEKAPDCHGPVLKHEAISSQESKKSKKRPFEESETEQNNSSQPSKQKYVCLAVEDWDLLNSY
# UniProt Q9Y2U5: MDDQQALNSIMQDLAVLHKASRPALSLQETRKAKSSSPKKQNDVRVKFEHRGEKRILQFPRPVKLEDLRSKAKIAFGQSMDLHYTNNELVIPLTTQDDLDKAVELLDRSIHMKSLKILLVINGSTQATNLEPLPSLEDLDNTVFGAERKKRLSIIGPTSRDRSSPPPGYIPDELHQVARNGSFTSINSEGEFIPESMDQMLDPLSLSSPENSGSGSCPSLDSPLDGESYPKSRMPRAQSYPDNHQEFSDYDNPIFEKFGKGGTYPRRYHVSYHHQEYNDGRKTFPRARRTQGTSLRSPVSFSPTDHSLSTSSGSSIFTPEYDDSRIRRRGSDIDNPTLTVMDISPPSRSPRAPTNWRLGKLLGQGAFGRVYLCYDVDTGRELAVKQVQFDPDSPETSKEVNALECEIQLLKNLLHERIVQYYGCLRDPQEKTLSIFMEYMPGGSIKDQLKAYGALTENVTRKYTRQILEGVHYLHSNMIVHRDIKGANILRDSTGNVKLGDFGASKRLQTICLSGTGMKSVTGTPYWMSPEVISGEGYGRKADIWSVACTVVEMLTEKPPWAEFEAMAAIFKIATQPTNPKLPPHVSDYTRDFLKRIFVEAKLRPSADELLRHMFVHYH
# UniProt Q9UDY8: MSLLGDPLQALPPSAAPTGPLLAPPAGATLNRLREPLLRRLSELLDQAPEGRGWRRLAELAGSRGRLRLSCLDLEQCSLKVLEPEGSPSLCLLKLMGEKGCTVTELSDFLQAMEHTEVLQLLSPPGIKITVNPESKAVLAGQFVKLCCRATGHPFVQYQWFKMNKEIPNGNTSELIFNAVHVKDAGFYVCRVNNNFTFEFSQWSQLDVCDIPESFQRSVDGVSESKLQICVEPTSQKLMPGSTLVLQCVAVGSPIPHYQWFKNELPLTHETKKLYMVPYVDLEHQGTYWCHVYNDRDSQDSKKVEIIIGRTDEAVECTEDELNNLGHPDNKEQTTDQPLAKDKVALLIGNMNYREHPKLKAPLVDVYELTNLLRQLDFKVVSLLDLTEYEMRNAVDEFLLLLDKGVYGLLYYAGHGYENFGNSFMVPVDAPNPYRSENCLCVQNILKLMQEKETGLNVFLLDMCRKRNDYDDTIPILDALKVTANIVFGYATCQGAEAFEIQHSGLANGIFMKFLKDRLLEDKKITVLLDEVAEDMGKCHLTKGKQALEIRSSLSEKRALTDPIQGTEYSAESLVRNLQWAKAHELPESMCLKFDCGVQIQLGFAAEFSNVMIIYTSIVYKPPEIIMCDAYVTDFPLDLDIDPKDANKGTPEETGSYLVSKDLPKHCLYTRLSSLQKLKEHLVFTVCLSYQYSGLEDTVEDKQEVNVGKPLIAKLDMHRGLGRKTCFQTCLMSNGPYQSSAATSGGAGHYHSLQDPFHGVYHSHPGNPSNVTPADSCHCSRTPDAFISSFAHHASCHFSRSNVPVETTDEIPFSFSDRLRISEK
# UniProt Q15048, 146-168: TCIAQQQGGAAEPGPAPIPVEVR
# UniProt Q8N1G4, 206-226: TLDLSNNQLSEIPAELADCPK
# The other results are listed elsewhere or left out. The data scatter; read single values as rough.
# Key:
# [1] = compound: ClCC(=O)N[C@@H]1CCCc2ccccc12; assay: log2 mean competition ratio of IA-DTB cysteine labelling (DMSO/compound) (log2 ratio); higher = stronger cysteine engagement by compound; settings: treatment time: 4 h, cell line lysate: HEK293T
# Experimental: (§1)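 IA-DTB competitive cysteine chemoproteomics in HEK293T RIPA lysate. Lysates were treated with compound 29 or 30 at 50 or 200 µM for 4 h, then IA-DTB (500 µM, 1 h), trypsin-digested, NeutrAvidin-enriched and analysed by diaPASEF. Competition ratio = intensity DMSO / intensity compound (n=4 treated, n=64 DMSO); binding: mean log2 CR ≥ 1 and p ≤ 0.05 plus QC filters. Target is the cysteine site.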
# [2] = compound: ClCC(=O)N[C@H]1CCCc2ccccc12; assay: as above; settings: treatment time: 4 h, cell line lysate: HEK293T
# Experimental: as §1
Target,log2 mean competition ratio ([1]; 50 µM),log2 mean competition ratio ([1]; 200 µM),log2 mean competition ratio ([2]; 50 µM),log2 mean competition ratio ([2]; 200 µM)
MBTPS2 C358 (UniProt O43462),-0.126,0.00369,0.484,0.0357
MAP7D3 C521 (UniProt Q8IWC1),0.0363,0.00639,-0.0655,-0.00495
MBTPS2 C371 (UniProt O43462),0.115,0.543,0.493,0.347
LRRFIP1 C644 (UniProt Q32MZ4),-0.141,-0.107,-0.0625,-0.000731
MCMBP C239 (UniProt Q9BTE3),-0.11,-0.0356,0.0414,-0.0631
LSM7 C76 (UniProt Q9UK45),0.323,0.176,0.83,0.221
MAP7D3 C315 (UniProt Q8IWC1),-0.235,-0.0483,0.209,-0.149
MAP3K5 C928 (UniProt Q99683),,-0.318,-0.0352,0.273
LSS C636 (UniProt P48449),-0.838,0.278,-0.625,1.11
MAPKAPK2 C224 (UniProt P49137),-0.13,-0.0369,0.629,-0.359
MBTD1 C185 (UniProt Q05BQ5),-0.188,-0.166,0.0725,-0.368
MAPK8 C245 (UniProt P45983),0.0945,0.37,0.11,0.176
MBTPS1 C849 (UniProt Q14703),-0.289,0.0387,-0.499,-0.0357
LTN1 C91 (UniProt O94822),0.0625,0.182,-0.0109,0.185
MAP1B C2041 (UniProt P46821),-0.334,0.472,-0.315,0.343
LRRC42 C373 (UniProt Q9Y546),0.181,-0.293,0.348,-0.262
MCM5 C207 (UniProt P33992),0.00674,0.0448,-0.00477,0.207
MACO1 C502 (UniProt Q8N5G2),0.0391,0.291,0.309,0.302
LUC7L2 C59 (UniProt Q9Y383),-0.022,0.102,-0.0866,0.0916
MAP7D3 C572 (UniProt Q8IWC1),-0.0165,0.0417,-0.0249,0.0754
MAGI1 C526,-0.156,,-0.266,-0.264

Target,log2 mean competition ratio ([1]; 50 µM),log2 mean competition ratio ([1]; 200 µM),log2 mean competition ratio ([2]; 50 µM),log2 mean competition ratio ([2]; 200 µM)
MAP3K2 C405 (UniProt Q9Y2U5),-0.416,-0.387,-0.481,-0.306
MCM10 C786 (UniProt Q7L590),,0.0484,,0.232
MAD1L1 C134 (UniProt Q9Y6D9),-0.437,0.0522,-0.317,-0.124
MCM3 C148 (UniProt P25205),0.202,-0.189,0.342,-0.228
LSM14B C310 (UniProt Q9BX40),-0.333,-0.0188,0.237,0.125
LRRFIP1 C805 (UniProt Q32MZ4),-0.161,0.19,0.0593,0.376
LRRC40 C438 (UniProt Q9H9A6),0.177,-0.11,0.118,-0.121
MAK16 C44 (UniProt Q9BXY0),0.0678,-0.138,-0.0942,-0.16
MCM4 C212 (UniProt P33991),0.00868,0.268,-0.401,-0.0331
MALT1 C91 (UniProt Q9UDY8),-0.0531,0.211,-0.138,0.281
LZTS2 C376 (UniProt Q9BRK4),0.164,0.0558,-0.145,0.00481
LRRC14 C147 (UniProt Q15048),-0.389,0.149,-0.11,-0.108
MAP3K1 C1488 (UniProt Q13233),0.236,0.295,-0.251,0.0395
LSG1 C475 (UniProt Q9H089),0.242,0.289,-0.302,-0.431
MAP1A C2191 (UniProt P78559),0.572,-0.0622,1.03,0.227
MACF1 C4825,0.0902,0.157,0.327,0.19
LRRC14 C109 (UniProt Q15048),0.13,0.332,-0.163,0.134
MAST2 C686 (UniProt Q6P0Q8),-0.0767,-0.612,-0.247,0.116
LRRC47 C224 (UniProt Q8N1G4),0.125,-0.0378,0.106,-0.221
MACF1 C6075,0.0238,,-0.258,0.00623
MAP4K5 C418 (UniProt Q9Y4K4),-0.252,0.657,-0.158,0.495

# No new results follow: an excerpt of the list.
Target,log2 mean competition ratio ([1]; 50 µM),log2 mean competition ratio ([1]; 200 µM),log2 mean competition ratio ([2]; 50 µM),log2 mean competition ratio ([2]; 200 µM)
MBTPS2 C371 (UniProt O43462),0.115,0.543,0.493,0.347
LRRFIP1 C644 (UniProt Q32MZ4),-0.141,-0.107,-0.0625,-0.000731
MCMBP C239 (UniProt Q9BTE3),-0.11,-0.0356,0.0414,-0.0631
